Results are given in words; binding and its absence hold for the method and conditions named.

In PMC8808184 one finds binding data, which are given here for one molecule.

The experiment addresses E1 domain of human APLP1 (human) (UniProt P51693). The experiment can be described thus: SEC; size-exclusion chromatography of the purified fragments; both purified.

B1: E1 domain of human APLP1 (domain or fragment, UniProt P51693 50-212)
chain: APGSAQVAGLCGRLTLHRDLRTGRWEPDPQRSRRCLRDPQRVLEYCRQMYPELQIARVEQATQAIPMERWCGGSRSGSCAHPHHQVVPFRCLPGEFVSEALLVPEGCRFLHQERMDQCESSTRRHQEAQEACSSQGLILHGSGMLLPCGSDRFRGVEYVCCPP
modifications: biotin (EZ-Link NHS-PEG4-Biotin, 1:1 molar ratio) where immobilised in BLI
For B1, the binding entry is on record as “no binding”.
